Results on six molecules are retold here after PubChem BioAssay AID248 (DTP/NCI, 2004).

For this experiment, the system named is L1210 leukemia ip in BDF1 mice, survival T/C. Description: NCI In Vivo Anticancer Drug Screen. Data for tumor model L1210 Leukemia (intraperitoneal) in B6D2F1 (BDF1) mice. Particulars: T/C endpoint: mean survival time, higher T/C = longer survival.
Setting [1] is: dose: 100.0 mg/kg/injection, schedule: Q01DX001 (ip), vehicle: saline.

The list is a part of this screen's results and no random one: it covers a few groups of compounds. Other doses and runs of a compound may be missing. T/C: endpoint of the treated group in % of that of the vehicle group. Where survival is the endpoint, the PubChem record calls one and a half times the control and up active, and a quarter to a half above the control has no call in these data; cut-offs in other NCI protocols can differ. Some T/C values are marked as having no survivor count here; that says nothing about deaths at the dose. Schedule codes are those of the source, read here as Q, the interval in days (D) or hours (H), X, the number of doses. Some doses were run more than once; the results are listed from low to high. Some schedules carry Z or #; the key to these is not given.

As to `O=P(Cl)(Cl)N(CCF)CCF`, the T/C is 93 % of control [survivor count not shown] (dose: 1.25 mg/kg/injection, schedule: Q01DX Z (ip), vehicle: saline); 101 % of control [survivor count not shown] (dose: 2.5 mg/kg/injection, schedule: Q01DX Z (ip), vehicle: saline); 115 % of control [survivor count not shown] (dose: 5.0 mg/kg/injection, schedule: Q01DX Z (ip), vehicle: saline).

With `Nc1c(Cl)cc(CN(CCCl)CCCl)cc1Cl`, the T/C reads like this: under setting [1], 106 % of control [survivor count not shown]; (dose: 200.0 mg/kg/injection, schedule: Q01DX001 (ip), vehicle: saline) 108 % of control [survivor count not shown].

In the case of `CCN(CC)P(=O)(Cl)OC` (stereo not given), the T/C is 92 % of control [survivor count not shown] (dose: 12.5 mg/kg/injection, schedule: Q01DX009 (ip), vehicle: DMSO); 87 [survivor count not shown] and 99 % of control [survivor count not shown] (dose: 50.0 mg/kg/injection, schedule: Q01DX009 (ip), vehicle: DMSO).

`O=C(NCCCl)c1ccc(N(CCCl)CCCl)cc1`: the T/C was 92 % of control [survivor count not shown] (dose: 50.0 mg/kg/injection, schedule: Q04DX003 (ip), vehicle: Klucel (hydroxypropylcellulose) (HPC)); 96 % of control [survivor count not shown] (dose: 100.0 mg/kg/injection, schedule: Q01DX009 (ip), vehicle: Klucel (hydroxypropylcellulose) (HPC)); 97 % of control [survivor count not shown] (dose: 100.0 mg/kg/injection, schedule: Q04DX003 (ip), vehicle: Klucel (hydroxypropylcellulose) (HPC)); 91 % of control [survivor count not shown] (dose: 200.0 mg/kg/injection, schedule: Q01DX009 (ip), vehicle: Klucel (hydroxypropylcellulose) (HPC)); 96 % of control [survivor count not shown] (dose: 200.0 mg/kg/injection, schedule: Q04DX003 (ip), vehicle: Klucel (hydroxypropylcellulose) (HPC)); 92 % of control [survivor count not shown] (dose: 400.0 mg/kg/injection, schedule: Q01DX009 (ip), vehicle: Klucel (hydroxypropylcellulose) (HPC)). Also, the T/C (dose: 400.0 mg/kg/injection, schedule: Q04DX003 (ip), vehicle: Klucel (hydroxypropylcellulose) (HPC)) was 105 % of control [survivor count not shown].

As for `CC(Cl)CN(CCCl)P1(=O)NCCCO1` (stereo not given), the T/C (dose: 11.0 mg/kg/injection, schedule: Q01DX Z (ip), vehicle: methylcellulose (MC)) was 92 % of control [survivor count not shown]; the T/C (dose: 22.0 mg/kg/injection, schedule: Q01DX Z (ip), vehicle: methylcellulose (MC)) is 105 % of control [survivor count not shown]; the T/C (dose: 44.0 mg/kg/injection, schedule: Q01DX Z (ip), vehicle: methylcellulose (MC)) is 112 % of control [survivor count not shown]; the T/C (dose: 88.0 mg/kg/injection, schedule: Q01DX Z (ip), vehicle: methylcellulose (MC)) was 128 % of control [survivor count not shown]; the T/C (dose: 100.0 mg/kg/injection, schedule: Q01DX Z (ip), vehicle: methylcellulose (MC)) is 119 % of control [survivor count not shown]; the T/C (dose: 200.0 mg/kg/injection, schedule: Q01DX Z (ip), vehicle: methylcellulose (MC)) is 90 % of control [survivor count not shown].

On to `CC(C)=NN(CCCl)CCCl`, for which the T/C is, setting by setting: (dose: 12.5 mg/kg/injection, schedule: Q01DX001 (ip), vehicle: saline) 101 % of control [survivor count not shown]; (dose: 22.0 mg/kg/injection, schedule: Q01DX001 (ip), vehicle: saline) 101 % of control [survivor count not shown]; (dose: 25.0 mg/kg/injection, schedule: Q01DX001 (ip), vehicle: saline) 121 % of control [survivor count not shown]; (dose: 25.0 mg/kg/injection, schedule: Q04DX003 (ip), vehicle: saline) 103 % of control [survivor count not shown]; (dose: 33.0 mg/kg/injection, schedule: Q01DX001 (ip), vehicle: saline) 106 % of control [survivor count not shown]; (dose: 33.0 mg/kg/injection, schedule: Q04DX003 (ip), vehicle: saline) 136 % of control [survivor count not shown]. The T/C was 121 [survivor count not shown] and 128 % of control [survivor count not shown] (dose: 50.0 mg/kg/injection, schedule: Q01DX001 (ip), vehicle: saline); 157 [survivor count not shown] and 167 % of control [survivor count not shown] (dose: 50.0 mg/kg/injection, schedule: Q04DX003 (ip), vehicle: saline); 140 % of control [survivor count not shown] (dose: 75.0 mg/kg/injection, schedule: Q01DX001 (ip), vehicle: saline); 229 % of control [survivor count not shown] under setting [1].
